The list shows a part of the results.
How the values were obtained:
Assay in all cases: log2 fold change, soluble protein after heating vs DMSO (PISA); higher = thermal stabilisation; K562 lysate, 10 uM; active = over 0.2 and 3.5 SD of the protein, either way, in both replicates (recomputed)
erlotinib = compound: C#Cc1cccc(Nc2ncnc3cc(OCCOC)c(OCCOC)cc23)c1 [erlotinib]
Summary of the method: (§1)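 Soluble protein was defined as the supernatant remaining after 21,000xg for 90 min, following pooling of heated aliquots and adjustment to 0.5% NP-40 at 4°C. Before that, crude K562 extract at 1 mg/mL protein in PBS pH 7.4 with 1 mM MgCl2 was treated with 10 μM compound for 30 min and heated for 3 min across 48°C-58°C. Quantification used TMTpro 16plex LC-MS/MS with channel sums equalised, and values are log-two fold changes in thermal stability relative to solvent controls from duplicates.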

The chains behind the UniProt entries cited, without tags or fusion partners. Where a name states a change or a piece, a line headed by the entry shows the natural chain unless it says otherwise.
UniProt P17152: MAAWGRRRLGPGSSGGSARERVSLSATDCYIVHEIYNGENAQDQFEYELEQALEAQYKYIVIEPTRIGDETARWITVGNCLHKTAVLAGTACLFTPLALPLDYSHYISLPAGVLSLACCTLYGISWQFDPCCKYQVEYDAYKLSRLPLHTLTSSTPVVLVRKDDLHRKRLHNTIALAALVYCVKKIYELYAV
UniProt O75663: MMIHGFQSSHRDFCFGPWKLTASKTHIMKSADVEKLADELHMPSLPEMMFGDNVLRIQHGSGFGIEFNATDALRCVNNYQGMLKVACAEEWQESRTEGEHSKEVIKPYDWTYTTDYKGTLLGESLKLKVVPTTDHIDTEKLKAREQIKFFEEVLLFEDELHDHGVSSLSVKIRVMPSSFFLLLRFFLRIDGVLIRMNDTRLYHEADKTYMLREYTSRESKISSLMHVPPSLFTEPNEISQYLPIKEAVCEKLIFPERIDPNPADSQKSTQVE
UniProt Q03167: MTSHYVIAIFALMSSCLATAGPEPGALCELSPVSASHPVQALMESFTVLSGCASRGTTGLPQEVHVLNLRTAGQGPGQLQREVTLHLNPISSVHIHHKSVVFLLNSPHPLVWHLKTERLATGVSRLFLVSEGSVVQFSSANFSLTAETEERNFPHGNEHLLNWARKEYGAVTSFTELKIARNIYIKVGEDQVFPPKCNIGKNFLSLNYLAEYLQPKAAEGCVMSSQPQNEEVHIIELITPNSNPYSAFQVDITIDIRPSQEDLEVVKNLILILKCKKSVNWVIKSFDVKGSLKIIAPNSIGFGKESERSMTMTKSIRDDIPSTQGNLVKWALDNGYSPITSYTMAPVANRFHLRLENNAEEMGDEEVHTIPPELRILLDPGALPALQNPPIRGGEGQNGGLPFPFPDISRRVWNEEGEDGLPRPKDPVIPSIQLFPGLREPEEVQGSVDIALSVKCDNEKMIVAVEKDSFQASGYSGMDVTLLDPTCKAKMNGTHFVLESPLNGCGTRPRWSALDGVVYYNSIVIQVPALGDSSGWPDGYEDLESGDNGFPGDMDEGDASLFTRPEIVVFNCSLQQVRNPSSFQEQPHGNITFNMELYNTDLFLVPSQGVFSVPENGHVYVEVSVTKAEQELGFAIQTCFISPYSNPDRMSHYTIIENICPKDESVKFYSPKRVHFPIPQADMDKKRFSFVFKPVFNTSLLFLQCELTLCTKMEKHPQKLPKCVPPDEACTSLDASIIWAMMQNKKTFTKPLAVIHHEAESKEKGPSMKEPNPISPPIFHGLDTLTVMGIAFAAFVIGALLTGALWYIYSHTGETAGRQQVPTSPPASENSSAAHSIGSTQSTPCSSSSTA
UniProt Q9HC07: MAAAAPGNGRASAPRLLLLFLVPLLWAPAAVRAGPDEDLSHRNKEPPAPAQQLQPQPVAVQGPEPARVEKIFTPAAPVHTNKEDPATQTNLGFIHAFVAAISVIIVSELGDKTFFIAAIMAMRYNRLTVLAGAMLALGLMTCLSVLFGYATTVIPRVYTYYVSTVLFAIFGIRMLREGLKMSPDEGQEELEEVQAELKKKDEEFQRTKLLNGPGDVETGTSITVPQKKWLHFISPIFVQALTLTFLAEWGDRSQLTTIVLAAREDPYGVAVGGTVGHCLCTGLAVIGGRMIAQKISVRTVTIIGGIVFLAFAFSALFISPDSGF
UniProt P49755: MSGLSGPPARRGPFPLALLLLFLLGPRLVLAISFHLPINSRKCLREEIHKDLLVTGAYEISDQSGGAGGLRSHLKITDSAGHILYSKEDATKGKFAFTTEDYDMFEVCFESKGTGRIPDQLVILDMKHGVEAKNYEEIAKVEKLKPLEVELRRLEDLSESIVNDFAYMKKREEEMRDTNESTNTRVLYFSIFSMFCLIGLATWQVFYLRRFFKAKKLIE
UniProt Q8TBQ9: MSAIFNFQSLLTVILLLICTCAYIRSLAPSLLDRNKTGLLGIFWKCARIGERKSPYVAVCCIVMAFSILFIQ
UniProt Q9Y2S6, whole entry, looked up: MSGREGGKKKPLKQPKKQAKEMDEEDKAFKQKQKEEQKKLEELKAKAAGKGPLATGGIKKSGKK
UniProt Q8IYQ7: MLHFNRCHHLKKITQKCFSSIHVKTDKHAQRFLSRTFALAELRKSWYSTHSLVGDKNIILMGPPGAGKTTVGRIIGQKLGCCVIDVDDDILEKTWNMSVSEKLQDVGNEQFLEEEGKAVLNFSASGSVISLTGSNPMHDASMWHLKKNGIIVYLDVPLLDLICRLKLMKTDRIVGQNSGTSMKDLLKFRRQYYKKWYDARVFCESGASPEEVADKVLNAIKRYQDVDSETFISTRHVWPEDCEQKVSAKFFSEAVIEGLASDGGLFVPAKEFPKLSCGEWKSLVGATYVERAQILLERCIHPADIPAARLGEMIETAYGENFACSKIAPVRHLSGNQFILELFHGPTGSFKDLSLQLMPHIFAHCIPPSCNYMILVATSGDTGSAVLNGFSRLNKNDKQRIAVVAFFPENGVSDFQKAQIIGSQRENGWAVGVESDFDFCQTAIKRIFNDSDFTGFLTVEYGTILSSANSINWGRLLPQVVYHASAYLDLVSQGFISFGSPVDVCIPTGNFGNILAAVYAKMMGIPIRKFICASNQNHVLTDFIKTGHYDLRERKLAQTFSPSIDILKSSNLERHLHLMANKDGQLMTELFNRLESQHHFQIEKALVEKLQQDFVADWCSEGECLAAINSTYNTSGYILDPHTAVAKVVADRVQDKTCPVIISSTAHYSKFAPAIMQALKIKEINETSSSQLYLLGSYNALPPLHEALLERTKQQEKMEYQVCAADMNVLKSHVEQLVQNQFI
UniProt O43422: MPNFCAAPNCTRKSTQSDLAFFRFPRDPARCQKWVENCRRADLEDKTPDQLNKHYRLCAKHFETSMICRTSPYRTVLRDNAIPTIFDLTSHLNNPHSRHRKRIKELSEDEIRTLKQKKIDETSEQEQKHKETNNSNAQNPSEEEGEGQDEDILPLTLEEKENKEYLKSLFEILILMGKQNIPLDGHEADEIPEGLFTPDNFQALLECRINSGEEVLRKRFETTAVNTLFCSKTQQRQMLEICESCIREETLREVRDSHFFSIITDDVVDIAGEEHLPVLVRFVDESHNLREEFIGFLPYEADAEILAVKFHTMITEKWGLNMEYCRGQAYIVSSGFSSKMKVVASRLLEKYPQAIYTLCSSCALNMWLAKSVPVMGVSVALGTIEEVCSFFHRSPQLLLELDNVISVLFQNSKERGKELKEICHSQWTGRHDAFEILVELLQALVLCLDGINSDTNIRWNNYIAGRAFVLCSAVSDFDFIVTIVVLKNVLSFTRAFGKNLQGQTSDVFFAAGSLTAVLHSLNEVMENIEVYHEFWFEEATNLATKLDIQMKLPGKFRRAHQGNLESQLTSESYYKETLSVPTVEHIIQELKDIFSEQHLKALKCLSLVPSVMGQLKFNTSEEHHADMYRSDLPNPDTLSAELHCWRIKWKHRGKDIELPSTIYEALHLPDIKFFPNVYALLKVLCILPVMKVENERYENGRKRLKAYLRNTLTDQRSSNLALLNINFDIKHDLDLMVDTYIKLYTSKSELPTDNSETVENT
UniProt Q92544: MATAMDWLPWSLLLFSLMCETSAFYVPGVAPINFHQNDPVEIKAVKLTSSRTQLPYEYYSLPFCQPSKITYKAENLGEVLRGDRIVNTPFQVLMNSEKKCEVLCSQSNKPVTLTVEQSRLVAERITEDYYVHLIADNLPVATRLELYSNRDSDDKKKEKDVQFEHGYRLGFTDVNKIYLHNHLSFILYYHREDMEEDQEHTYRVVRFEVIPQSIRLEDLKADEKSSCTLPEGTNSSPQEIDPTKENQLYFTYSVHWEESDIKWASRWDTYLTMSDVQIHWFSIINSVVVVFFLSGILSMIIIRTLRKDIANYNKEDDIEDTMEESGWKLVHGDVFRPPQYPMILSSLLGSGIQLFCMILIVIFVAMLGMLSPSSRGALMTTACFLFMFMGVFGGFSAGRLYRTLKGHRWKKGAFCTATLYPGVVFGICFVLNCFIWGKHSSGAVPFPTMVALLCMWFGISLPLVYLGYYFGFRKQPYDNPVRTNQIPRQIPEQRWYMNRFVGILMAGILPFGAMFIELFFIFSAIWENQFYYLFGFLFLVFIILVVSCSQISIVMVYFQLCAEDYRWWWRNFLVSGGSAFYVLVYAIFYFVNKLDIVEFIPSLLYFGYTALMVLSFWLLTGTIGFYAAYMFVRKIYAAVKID
UniProt Q9P0S9: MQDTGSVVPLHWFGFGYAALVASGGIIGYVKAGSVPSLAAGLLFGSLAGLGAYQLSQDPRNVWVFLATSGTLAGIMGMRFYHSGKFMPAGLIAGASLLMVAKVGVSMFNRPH
UniProt Q969X1: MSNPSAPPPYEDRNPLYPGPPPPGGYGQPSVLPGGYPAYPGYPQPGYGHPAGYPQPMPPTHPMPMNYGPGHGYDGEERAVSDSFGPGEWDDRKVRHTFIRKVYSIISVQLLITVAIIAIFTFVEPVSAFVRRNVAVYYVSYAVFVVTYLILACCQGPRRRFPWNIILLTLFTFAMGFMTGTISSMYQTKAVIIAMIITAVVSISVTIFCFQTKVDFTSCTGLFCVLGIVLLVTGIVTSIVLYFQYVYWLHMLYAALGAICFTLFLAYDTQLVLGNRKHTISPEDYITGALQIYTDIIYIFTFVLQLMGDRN
UniProt O43493: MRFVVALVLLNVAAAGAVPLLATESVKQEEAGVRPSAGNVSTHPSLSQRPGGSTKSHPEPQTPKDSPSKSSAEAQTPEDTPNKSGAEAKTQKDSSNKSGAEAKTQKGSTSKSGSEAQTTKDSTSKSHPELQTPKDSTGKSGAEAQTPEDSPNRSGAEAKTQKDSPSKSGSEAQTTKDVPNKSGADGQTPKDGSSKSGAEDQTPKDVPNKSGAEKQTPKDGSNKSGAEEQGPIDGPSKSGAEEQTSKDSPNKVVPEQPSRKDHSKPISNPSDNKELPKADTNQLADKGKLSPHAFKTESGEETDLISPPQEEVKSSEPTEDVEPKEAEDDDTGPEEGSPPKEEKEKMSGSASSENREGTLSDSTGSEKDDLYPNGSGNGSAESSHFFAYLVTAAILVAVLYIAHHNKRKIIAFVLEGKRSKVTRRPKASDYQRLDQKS
UniProt Q6PL24: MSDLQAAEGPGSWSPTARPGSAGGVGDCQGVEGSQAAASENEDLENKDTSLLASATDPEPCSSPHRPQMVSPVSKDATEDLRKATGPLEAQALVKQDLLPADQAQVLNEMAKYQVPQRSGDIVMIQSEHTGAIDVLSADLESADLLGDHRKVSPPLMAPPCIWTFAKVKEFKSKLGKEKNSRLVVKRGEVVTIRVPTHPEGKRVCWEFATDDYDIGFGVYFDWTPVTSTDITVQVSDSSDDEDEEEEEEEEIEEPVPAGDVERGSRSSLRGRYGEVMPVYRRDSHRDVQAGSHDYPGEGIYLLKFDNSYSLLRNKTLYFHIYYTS
UniProt Q9NPL8: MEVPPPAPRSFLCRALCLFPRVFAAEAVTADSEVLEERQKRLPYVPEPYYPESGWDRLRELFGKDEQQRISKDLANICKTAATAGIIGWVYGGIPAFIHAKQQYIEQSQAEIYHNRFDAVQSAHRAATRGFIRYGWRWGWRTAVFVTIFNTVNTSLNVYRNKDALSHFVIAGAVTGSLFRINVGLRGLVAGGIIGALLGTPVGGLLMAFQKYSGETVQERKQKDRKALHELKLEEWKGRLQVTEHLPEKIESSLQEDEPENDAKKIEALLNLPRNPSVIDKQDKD
UniProt Q8IUX1: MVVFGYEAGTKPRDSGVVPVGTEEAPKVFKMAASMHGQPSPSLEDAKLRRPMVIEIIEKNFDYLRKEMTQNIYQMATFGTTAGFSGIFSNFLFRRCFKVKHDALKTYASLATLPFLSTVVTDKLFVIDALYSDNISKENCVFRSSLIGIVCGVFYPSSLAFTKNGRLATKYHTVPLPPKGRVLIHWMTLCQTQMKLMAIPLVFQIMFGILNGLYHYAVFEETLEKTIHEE

[1] = compound: C/C(=N\NC(=O)C1=CC(=CC=C1)S(=O)(=O)N2CCOCC2)/C3=C(C=CC(=C3)Cl)O
Summary of the method: as §1

[2] = compound: C1=CC(=CC=C1C2=NC3=C(N2)C=C(C=C3)C(=O)N)OC4=CC=C(C=C4)Cl
Summary of the method: as §1

[3] = compound: C1=CC2=C(C=CC(=C2)/C=C\3/C(=O)NC(=NCC4=CC=CS4)S3)N=C1
Summary of the method: as §1

[4] = compound: C1=CC2=NC=CN=C2C=C1/C=C/3\C(=O)NC(=O)S3
Summary of the method: as §1

[5] = compound: C1=CC=C(C=C1)C2=NC(=C(N2)C3=CC=NC=C3)C4=CC(=C(C=C4)Cl)O
Summary of the method: as §1

[6] = compound: C1=CC=C2C(=C1)C3=NNC4=CC=CC(=C43)C2=O
Summary of the method: as §1

[7] = compound: C1CCN(C1)C(=O)NC2=CC=CC(=C2)NC3=NC=C(C(=N3)NCCC4=CN=CN4)Br
Summary of the method: as §1

[8] = compound: C1CN(CCC1(CC2=CC=C(C=C2)Cl)N)C3=NC=NC4=C3C=CN4
Summary of the method: as §1

IRAK-1-4 Inhibitor I = compound: C1COCCN1CCN2C3=CC=CC=C3N=C2NC(=O)C4=CC(=CC=C4)[N+](=O)[O-] [IRAK-1-4 Inhibitor I]
Summary of the method: as §1

ibrutinib = compound: C=CC(=O)N1CCC[C@@H](n2nc(-c3ccc(Oc4ccccc4)cc3)c3c(N)ncnc32)C1 [ibrutinib]
Summary of the method: as §1

[9] = compound: CC(=O)c1cnc2ccc(-c3cc(Cl)c(O)c(Cl)c3)nc2c1N[C@H]1CC[C@H](CN(C)C)CC1
Summary of the method: as §1

ralimetinib = compound: CC(C)(C)Cn1c(N)nc2ccc(-c3[nH]c(C(C)(C)C)nc3-c3ccc(F)cc3)nc21 [ralimetinib]
Summary of the method: as §1

[10] = compound: CC(C)(O)CC(=O)NCCn1ccc2ncnc(Nc3ccc(Oc4cccc(C(F)(F)F)c4)c(Cl)c3)c21
Summary of the method: as §1

[11] = compound: CC(C)C1=C2N=C(C=C(N2N=C1)NCC3=CC=CC=C3)NCCCCCCN
Summary of the method: as §1

[12] = compound: CC1=C(C(CC(=O)N1)C2=CC=C(C=C2)C(F)(F)F)C(=O)NC3=C(C=C4C(=C3)C=NN4)F
Summary of the method: as §1

[13] = compound: CC1=C(C2=C(C=C1)C(=O)C3=CC=CC=C3N2CCCN)C
Summary of the method: as §1

[14] = compound: CC1=C(C=C(C=C1)NC(=O)C2=CC(=CC=C2)C(C)(C)C#N)NC3=CC4=C(C=C3)N=CN(C4=O)C
Summary of the method: as §1

[15] = compound: CC1=C(C=C(C=C1)NC(=O)C2=CC(=CC=C2)N(C)C)NC(=O)C3=CC=C(C=C3)O
Summary of the method: as §1

[16] = compound: CC1=CC=C(C=C1)SC2=C3C=C(SC3=CN=C2)C(=O)N
Summary of the method: as §1

Measured: log2 fold change

TMEM11 (UniProt P17152)
inactive: erlotinib 0.021 | [1] 0.048 | [2] -0.051 | [3] 0.012 | [4] -0.005 | [5] -0.023 | [6] 0.021 | [7] -0.067 | [8] 0.033 | IRAK-1-4 Inhibitor I 0.145 | ibrutinib -0.022 | [9] 0.015 | ralimetinib 0.03 | [10] -0.058 | [11] -0.052 | [12] 0.037 | [13] 0.076 | [14] -0.107 | [15] -0.089 | [16] 0.057

TIPRL (UniProt O75663)
inactive: erlotinib 0.012 | [1] 0.074 | [2] -0.003 | [3] 0.032 | [4] 0 | [5] 0.008 | [6] 0.007 | [7] -0.004 | [8] -0.046 | IRAK-1-4 Inhibitor I -0.007 | ibrutinib 0.019 | [9] 0.018 | ralimetinib 0 | [10] -0.01 | [11] 0.001 | [12] -0.017 | [13] -0.031 | [14] 0.028 | [15] 0.01 | [16] 0.016

TGFBR3 (UniProt Q03167)
inactive: erlotinib -0.037 | [1] -0.025 | [2] -0.001 | [3] -0.036 | [4] 0.031 | [5] 0 | [6] -0.066 | [7] 0.009 | [8] 0.01 | IRAK-1-4 Inhibitor I -0.047 | ibrutinib 0.047 | [9] 0.065 | ralimetinib 0.038 | [10] -0.033 | [11] -0.07 | [12] 0.016 | [13] -0.019 | [14] 0.06 | [15] -0.006 | [16] 0.038

TMEM165 (UniProt Q9HC07)
inactive: erlotinib 0 | [1] 0.084 | [2] 0.018 | [3] 0.038 | [4] -0.043 | [5] 0.01 | [6] 0.066 | [7] -0.007 | [8] 0.037 | IRAK-1-4 Inhibitor I -0.001 | ibrutinib 0.023 | [9] 0 | ralimetinib -0.008 | [10] 0.017 | [11] 0.042 | [12] -0.042 | [13] -0.036 | [14] 0.034 | [15] 0.019 | [16] 0.001

TMED10 (UniProt P49755)
inactive: erlotinib 0.01 | [1] 0.094 | [2] -0.05 | [3] 0.006 | [4] -0.024 | [5] 0.009 | [6] -0.001 | [7] 0.019 | [8] 0.025 | IRAK-1-4 Inhibitor I 0.015 | ibrutinib 0.018 | [9] 0.013 | ralimetinib 0.002 | [10] -0.017 | [11] -0.006 | [12] 0.041 | [13] -0.004 | [14] 0.013 | [15] -0.038 | [16] 0.017

TMEM167A (UniProt Q8TBQ9)
inactive: erlotinib -0.018 | [1] 0.016 | [2] 0.012 | [3] -0.002 | [4] -0.011 | [5] -0.031 | [6] -0.055 | [7] -0.1 | [8] 0.031 | IRAK-1-4 Inhibitor I 0.063 | ibrutinib 0.04 | [9] -0.049 | ralimetinib 0.113 | [10] -0.036 | [11] -0.046 | [12] 0.003 | [13] -0.129 | [14] 0.014 | [15] 0.005 | [16] 0.02

TMA7 (UniProt Q9Y2S6)
inactive: erlotinib 0 | [1] 0.001 | [2] 0.014 | [3] 0.004 | [4] -0.032 | [5] 0.054 | [6] 0.002 | [7] 0.012 | [8] -0.007 | IRAK-1-4 Inhibitor I -0.023 | ibrutinib -0.063 | [9] 0.029 | ralimetinib -0.094 | [10] 0.047 | [11] 0.019 | [12] -0.011 | [13] 0.051 | [14] -0.127 | [15] 0.015 | [16] -0.002

THNSL1 (UniProt Q8IYQ7)
inactive: erlotinib 0.094 | [1] 0.028 | [2] 0.028 | [3] -0.026 | [4] -0.033 | [5] -0.034 | [6] -0.063 | [7] -0.011 | [8] -0.028 | IRAK-1-4 Inhibitor I 0.002 | ibrutinib -0.019 | [9] -0.007 | ralimetinib 0.016 | [10] -0.076 | [11] -0.011 | [12] 0.002 | [13] 0.032 | [14] 0.03 | [15] -0.026 | [16] -0.001

Random excerpt: two entries already listed, in no set order.
TMEM165 (UniProt Q9HC07)
inactive: erlotinib 0 | [1] 0.084 | [2] 0.018 | [3] 0.038 | [4] -0.043 | [5] 0.01 | [6] 0.066 | [7] -0.007 | [8] 0.037 | IRAK-1-4 Inhibitor I -0.001 | ibrutinib 0.023 | [9] 0 | ralimetinib -0.008 | [10] 0.017 | [11] 0.042 | [12] -0.042 | [13] -0.036 | [14] 0.034 | [15] 0.019 | [16] 0.001

TMEM167A (UniProt Q8TBQ9)
inactive: erlotinib -0.018 | [1] 0.016 | [2] 0.012 | [3] -0.002 | [4] -0.011 | [5] -0.031 | [6] -0.055 | [7] -0.1 | [8] 0.031 | IRAK-1-4 Inhibitor I 0.063 | ibrutinib 0.04 | [9] -0.049 | ralimetinib 0.113 | [10] -0.036 | [11] -0.046 | [12] 0.003 | [13] -0.129 | [14] 0.014 | [15] 0.005 | [16] 0.02

Later entries

THAP12 (UniProt O43422)
inactive: erlotinib 0.001 | [1] -0.001 | [2] 0.014 | [3] 0.044 | [4] -0.008 | [5] -0.02 | [6] -0.063 | [7] -0.005 | [8] -0.008 | IRAK-1-4 Inhibitor I -0.023 | ibrutinib -0.014 | [9] -0.003 | ralimetinib 0.012 | [10] -0.049 | [11] -0.004 | [12] 0.018 | [13] 0 | [14] 0.042 | [15] 0.04 | [16] 0.003

TM9SF4 (UniProt Q92544)
inactive: erlotinib -0.009 | [1] -0.002 | [2] -0.048 | [3] 0.052 | [4] -0.015 | [5] -0.022 | [6] -0.151 | [7] -0.021 | [8] -0.012 | IRAK-1-4 Inhibitor I 0.015 | ibrutinib -0.005 | [9] -0.014 | ralimetinib -0.011 | [10] -0.045 | [11] 0.002 | [12] 0.023 | [13] -0.01 | [14] -0.022 | [15] -0.001 | [16] -0.013

TMEM14C (UniProt Q9P0S9)
inactive: erlotinib 0.027 | [1] -0.201 | [2] 0.046 | [3] -0.011 | [4] -0.039 | [5] 0.022 | [6] 0.063 | [7] -0.177 | [8] -0.042 | IRAK-1-4 Inhibitor I 0.064 | ibrutinib 0.04 | [9] 0.085 | ralimetinib 0.129 | [10] -0.077 | [11] -0.135 | [12] -0.047 | [13] -0.146 | [14] 0.048 | [15] 0.007 | [16] 0.152

TMBIM1 (UniProt Q969X1)
inactive: erlotinib -0.07 | [1] 0.115 | [2] 0 | [3] 0 | [4] 0.054 | [5] -0.023 | [6] -0.05 | [7] 0.013 | [8] 0.029 | IRAK-1-4 Inhibitor I 0 | ibrutinib 0.058 | [9] -0.002 | ralimetinib 0.022 | [10] -0.005 | [11] 0.01 | [12] 0.011 | [13] 0.028 | [14] 0.072 | [15] -0.041 | [16] -0.015

TGOLN2 isoform 7 (UniProt O43493)
inactive: erlotinib -0.108 | [1] 0.007 | [2] 0 | [3] 0.022 | [4] -0.036 | [5] -0.021 | [6] 0.012 | [7] -0.025 | [8] 0.011 | IRAK-1-4 Inhibitor I 0.029 | ibrutinib -0.023 | [9] 0.013 | ralimetinib -0.065 | [10] -0.058 | [11] 0.003 | [12] 0.009 | [13] 0.005 | [14] -0.033 | [15] 0.051 | [16] -0.013

TMED8 (UniProt Q6PL24)
inactive: erlotinib -0.021 | [1] 0 | [2] -0.006 | [3] 0 | [4] 0.108 | [5] -0.056 | [6] -0.009 | [7] 0.008 | [8] 0.08 | IRAK-1-4 Inhibitor I -0.018 | ibrutinib 0.04 | [9] -0.02 | ralimetinib 0.044 | [10] 0.005 | [11] -0.023 | [12] -0.032 | [13] -0.01 | [14] 0.011 | [15] -0.022 | [16] 0.001

TIMMDC1 (UniProt Q9NPL8)
inactive: erlotinib -0.057 | [1] -0.013 | [2] 0.015 | [3] 0.028 | [4] -0.018 | [5] -0.001 | [6] 0.032 | [7] 0.033 | [8] -0.02 | IRAK-1-4 Inhibitor I 0.01 | ibrutinib 0.021 | [9] -0.017 | ralimetinib 0.002 | [10] -0.023 | [11] 0.001 | [12] 0.001 | [13] -0.075 | [14] 0.006 | [15] 0.023 | [16] -0.02

TMEM126B (UniProt Q8IUX1)
inactive: erlotinib 0.023 | [1] 0.077 | [2] 0.007 | [3] -0.061 | [4] 0.039 | [5] 0.028 | [6] -0.02 | [7] 0.009 | [8] 0.03 | IRAK-1-4 Inhibitor I 0.035 | ibrutinib -0.024 | [9] 0.006 | ralimetinib -0.026 | [10] -0.114 | [11] -0.033 | [12] 0.025 | [13] -0.05 | [14] 0.14 | [15] 0.004 | [16] 0.008

Reference: the supplement of paper PMC10849652
